# Literature values, collected in US20210268080A1, “IMMUNE STIMULATING COMPOSITIONS FOR THE TREATMENT AND REVENTION OF INFECTIONS WITH INTRACELLULAR PATHOGENS” (priority 2018, published 2021).
# Some entries share one result that the patent states for a list of compounds.
# System: Trypanosoma cruzi
smiles,measurement,setting,value
O=C(Cn1ccnc1[N+](=O)[O-])NCc1ccccc1 [benznidazole],efficacy in children,treated during the acute phase,65-80%
same,efficacy in adults,treated during the chronic phase,15-35%
same,efficacy in congenital infection,treated within the first years of life,up to 100%
